## Results of single-concentration screens

T. brucei: 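Whole-parasite assay of Trypanosoma brucei over 72 hours; the read-out is not stated. Compounds at 30 µM. Higher reads as stronger inhibition (inferred: compounds with an IC50 in retests scored well above the rest). Values scatter widely below zero; nearly all retest evidence comes from the higher of the two concentrations used. Of about 64,000 compounds tested this way, about 940 (1.5%) reached 50% or more in at least one test.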
Toxoplasma: 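Assay of Toxoplasma gondii numbers, read through their beta-galactosidase reporter with a colour substrate. Tested at 10 µM. The record gives no direction; the compounds picked for IC50 retests had high values, so higher reads as fewer parasites. About 67,000 compounds were tested under these conditions; 0.38% (about 260) showed 50% or more at least once.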

Values are the deposited “Percent Effect”, in %. The record does not define 0% and 100%; most values in the screen are far below 50% and negative numbers occur (in some assays of this library far below -100). Compounds were drawn at random from those tested, without regard to their results.

compound: COc1ccc(C)cc1C(C)NC(=O)CCn1cncn1 (stereo unspecified)
T. brucei: -10.39
Toxoplasma: 3.985

compound: COCCn1nc(C(=O)N2CCCC2c2cccc(F)c2)ccc1=O (stereo unspecified)
T. brucei: 3.844
Toxoplasma: -4.385

compound: Cc1ccc2c(c1)c(CNC(=O)C1CCN(CC(N)=O)CC1)nn2C
T. brucei: -21.44
Toxoplasma: -0.3189

compound: Cc1cccnc1NC(=O)CNC(=O)c1ccccc1Cl
T. brucei: -85.9
Toxoplasma: 0.03883

compound: Cc1cnn(CC2CCN(CC(O)c3ccc(F)cc3)CC2)c1 (stereo unspecified)
T. brucei: -3.477
Toxoplasma: 3.924

compound: Cc1cc(N(C)CCN(C)C)n2nc(C)cc2n1
T. brucei: -1.745
Toxoplasma: 4.09

compound: Cc1cnn(CC(C)NCc2cccc(C#N)c2)c1 (stereo unspecified)
T. brucei: -4.557
Toxoplasma: -4.619

compound: O=C(O)C(F)(F)F.[H][C@@]12COC[C@@H](C(=O)Nc3cnccn3)[C@]1([H])CN(C1CCCC1)C2
T. brucei: 23.88
Toxoplasma: 5.295

compound: O=C(O)C(F)(F)F.O=C(c1cnccn1)N1CC2(CCN(Cc3ccsc3)C2)C1
T. brucei: -6.252
Toxoplasma: 18.23

compound: O=C(COCC(F)(F)F)Nc1nncs1
T. brucei: -4.189
Toxoplasma: -3.69

compound: CC(C)CN1CCC2(CC1)CC(NS(C)(=O)=O)c1ccccc1O2.O=C(O)C(F)(F)F (stereo unspecified)
T. brucei: -52.05
Toxoplasma: 1.114

compound: Cc1cccnc1CN1CC[C@@](C)(O)[C@H](Oc2ccccc2)C1
T. brucei: -8.383
Toxoplasma: 6.958

compound: O=C(NCC(F)(F)F)C(c1cccnc1)N1CCOCC1 (stereo unspecified)
T. brucei: -12.05
Toxoplasma: -41.11

compound: Cc1cc(CN(C)Cc2cnc3c(c2)c(C)nn3C)no1
T. brucei: -42.18
Toxoplasma: -1.186

compound: Cc1nc(COC(=O)c2cccnc2C)no1
T. brucei: -11.08
Toxoplasma: -7.64

compound: COc1ccc(C2CCCN2c2cnc3ccccc3n2)c(OC)c1 (stereo unspecified)
T. brucei: 26.93
Toxoplasma: -0.9702

compound: CCn1c(Cn2cncn2)nnc1C1CCN(C2CCOCC2)CC1
T. brucei: -41.84
Toxoplasma: 23.7

compound: COCCNS(=O)(=O)c1cccc2c1CN(C(=O)c1cc(C)on1)CC2
T. brucei: -1.682
Toxoplasma: -2.351

compound: O=C(c1cc2c(s1)CCCCC2)N1CCC(c2ncc[nH]2)CC1
T. brucei: -37.28
Toxoplasma: 24.59

compound: O=C(NCC(F)F)c1ccc(S(=O)(=O)NCCc2cn[nH]c2)cc1
T. brucei: 33.63
Toxoplasma: -7.832

compound: Cc1ccc(C(O)CN(C)Cc2cnn(C)c2)cc1C (stereo unspecified)
T. brucei: -23.31
Toxoplasma: -3.349

compound: Cc1cc(-c2cnc(NC3CCCC3)nc2-c2ccoc2C)on1
T. brucei: 30.38
Toxoplasma: 7.623

compound: Cc1ccc(C(C(=O)N(C)CCc2cn[nH]c2)N(C)C)cc1 (stereo unspecified)
T. brucei: -18.7

compound: COc1ccccc1-c1c[nH]c(C2CCCN2)n1.Cl.Cl (stereo unspecified)
T. brucei: -25.79
Toxoplasma: 12.08

compound: O=C(NCc1nnc2n1CCCCC2)N(CC1CCOC1)C1CC1 (stereo unspecified)
T. brucei: -56.14
Toxoplasma: 26.95

compound: Cc1nc(C)c(CN2CCOC[C@H](Oc3ccccc3)C2)s1
T. brucei: -6.215
Toxoplasma: 4.557

compound: O=C(O)C(F)(F)F.[H][C@]12CCN(c3ncccn3)CC[C@@]1([H])S(=O)(=O)N(CC(=O)N(C)C)C2
T. brucei: 23.38
Toxoplasma: 3.079

compound: FC(F)(F)CN1CCC(CCNc2ncccn2)CC1
T. brucei: -30.64
Toxoplasma: 2.336

compound: COc1cc(CCC(=O)NCC2CCCN2C)ccc1OCC(F)(F)F (stereo unspecified)
T. brucei: 22.06
Toxoplasma: -2.825

compound: Cc1cnn(-c2cccc(N3CCCCC3)n2)c1
T. brucei: -88.74
Toxoplasma: 7.84

compound: Cc1c(S(=O)(=O)NCC(C)Cn2cc(Cl)cn2)cnn1C (stereo unspecified)
T. brucei: -52.65
Toxoplasma: 1.098

compound: CN(C)C(=O)c1nc(-c2ccc(S(C)(=O)=O)cc2)c2ccccn12
Toxoplasma: 17.74

Data taken from ChEMBL document CHEMBL3988442, “University of Dundee, Small-Polar-MMV Screening Library” (2021).